Test results reported in paper PMC9177158.
These are yes or no findings as the source states them, for the method shown. In cells and extracts the contact can be indirect. Some binding calls cover weakened binding; strength is not graded here. Each block holds one binder with its values, some of them ahead of it.

Key:
[1] = biological target: T1, Uncoupling protein-2 (rat, endogenous in kidney cortex) (rat (endogenous in rat kidney cortex)) (UniProt P56500); test: co-IP; reciprocal; rat kidney cortex lysate, kit lysis buffer adjusted to 100 mM NaCl; anti-UCP2 or anti-ANT2 monoclonal antibody cross-linked to magnetic beads; room temperature, 35 min; immunoblot; no inhibitor
T1 sequence: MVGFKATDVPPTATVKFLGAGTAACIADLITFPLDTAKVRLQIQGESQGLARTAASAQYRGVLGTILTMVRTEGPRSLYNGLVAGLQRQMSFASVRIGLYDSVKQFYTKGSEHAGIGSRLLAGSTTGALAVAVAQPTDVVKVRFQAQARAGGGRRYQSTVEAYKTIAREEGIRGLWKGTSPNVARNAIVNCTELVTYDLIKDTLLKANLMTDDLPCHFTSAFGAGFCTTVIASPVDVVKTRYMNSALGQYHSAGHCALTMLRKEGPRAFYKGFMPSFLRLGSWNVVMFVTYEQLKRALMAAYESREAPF

[2] = biological target: T1, Uncoupling protein-2 (rat, endogenous in kidney cortex) (rat (endogenous in rat kidney cortex)); test: co-IP; as a1, samples incubated with GDP
[3] = biological target: T2, Adenine nucleotide translocase-2 (rat, endogenous in kidney cortex) (rat (endogenous in rat kidney cortex)) (UniProt Q09073); test: co-IP; reciprocal; rat kidney cortex lysate, kit lysis buffer adjusted to 100 mM NaCl; anti-UCP2 or anti-ANT2 monoclonal antibody cross-linked to magnetic beads; room temperature, 35 min; immunoblot; no inhibitor
T2 sequence: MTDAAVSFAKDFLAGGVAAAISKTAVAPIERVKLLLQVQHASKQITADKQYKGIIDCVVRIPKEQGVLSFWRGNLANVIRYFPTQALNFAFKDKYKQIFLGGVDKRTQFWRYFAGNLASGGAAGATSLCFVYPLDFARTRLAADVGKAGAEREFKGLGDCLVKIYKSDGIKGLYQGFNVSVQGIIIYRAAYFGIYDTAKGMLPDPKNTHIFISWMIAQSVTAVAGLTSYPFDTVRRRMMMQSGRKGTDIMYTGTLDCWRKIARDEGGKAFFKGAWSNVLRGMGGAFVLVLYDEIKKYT

[4] = biological target: T2, Adenine nucleotide translocase-2 (rat, endogenous in kidney cortex) (rat (endogenous in rat kidney cortex)); test: co-IP; as a1, samples incubated with GDP

binding [1]: binds
B1: Adenine nucleotide translocase-2 (rat, endogenous in kidney cortex) (protein, UniProt Q09073 1-298)
chain: T2 sequence
binding [2]: no binding (condition: samples incubated with GDP)

binding [3]: binds
B2: Uncoupling protein-2 (rat, endogenous in kidney cortex) (protein, UniProt P56500 1-309)
chain: T1 sequence
binding [4]: no binding (condition: samples incubated with GDP)
